Values quoted from earlier work as cited in US8722373B2, “Contaminant control in Zymomonas fermentation using virginiamycin” (E I du Pont de Nemours and Company, priority 2012, dated 2014).
At least one structure is not confirmed: it was looked up by name or label, or the drawing left a doubt.

Tested on: Zymomonas mobilis strain ZM4
Settings: concentrations that are safe to use with yeast; Agrawan and Basappa 1996; cited from earlier work

Structure (SMILES)	effect on growth of / safety for Zymomonas
NC[C@H]1O[C@H](O[C@H]2[C@H](O)[C@@H](O[C@H]3O[C@H](CO)[C@@H](O)[C@H](N)[C@H]3O)[C@H](N)C[C@@H]2N)[C@H](O)[C@@H](O)[C@@H]1O [kanamycin]	inhibitory to growth
CN(C)[C@@H]1C(O)=C(C(N)=O)C(=O)[C@@]2(O)C(O)=C3C(=O)c4c(O)cccc4[C@@](C)(O)[C@H]3C[C@@H]12 [tetracycline]	inhibitory to growth
